# Measured values reported in PubChem BioAssay AID256 (DTP/NCI, 2004).
# The list is a part of this screen's results and no random one: it is rich in T/C values a quarter to a half above the control, in often repeated tests (any T/C) and in doses without a T/C. Further doses and runs are listed elsewhere. T/C is the treated group as % of the vehicle group. Some entries give survivors of the animals treated and no T/C: the source holds a T/C of zero for them, seemingly a mark for toxic or unscored doses. Some doses without a T/C left all or most animals alive at the check, yet need not have been tolerated: the source hardly ever lists a survival T/C far under the control, and the zero likely stands for such cases as well. Counts of survivors are from the toxicity check (mostly the fifth day) where no day follows; animals may have died later. Schedules are NCI's codes, taken here to give the interval after Q, in days (D) or hours (H), and the number of doses after X. Where survival is the endpoint, the PubChem record calls one and a half times the control and up active, and a quarter to a half above the control has no call in these data; cut-offs in other NCI protocols can differ. Some entries were tested several times; the values are given in rising order. Some T/C values are followed by the survivors on the day toxicity was checked, most often the fifth; without a count, all were alive then.
# System: CD2F1 mice, L1210 leukemia ip, survival T/C
# Assay: NCI In Vivo Anticancer Drug Screen. Data for tumor model L1210 Leukemia (intraperitoneal) in CD2F1 (CDF1) mice
# Conditions: T/C endpoint: mean survival time, higher T/C = longer survival
# Procedure, shortened: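 Each value reflects a quotient of treated over vehicle control outcomes in mice with a transplanted tumor.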
structure (smiles),measurement,setting,value
Nc1nc(=S)c2ncn(C3CC(O)C(CO)O3)c2[nH]1 (configuration not stated),T/C,"dose: 0.62 mg/kg/injection, schedule: Q01DX005 (ip), vehicle: saline",145 % of control
same,T/C,"dose: 0.62 mg/kg/injection, schedule: Q01DX009 (ip), vehicle: water",135 % of control
same,T/C,"dose: 0.62 mg/kg/injection, schedule: Q03HX008 (ip), vehicle: saline",139 % of control
same,T/C,"dose: 0.63 mg/kg/injection, schedule: Q01DX005 (ip), vehicle: saline with Tween-80",132 % of control
same,T/C,"dose: 1.25 mg/kg/injection, schedule: Q01DX005 (ip), vehicle: saline with Tween-80",140 % of control
same,T/C,"dose: 1.25 mg/kg/injection, schedule: Q01DX009 (ip), vehicle: water",145 % of control
same,T/C,"dose: 1.25 mg/kg/injection, schedule: Q03HX008 (ip), vehicle: saline",148 % of control
same,T/C,"dose: 2.5 mg/kg/injection, schedule: Q01DX005 (ip), vehicle: saline with Tween-80",147 % of control
same,T/C,"dose: 2.5 mg/kg/injection, schedule: Q01DX005 (ip), vehicle: saline",146 % of control
same,T/C,"dose: 2.5 mg/kg/injection, schedule: Q01DX005 (oral), vehicle: saline",149 % of control
same,T/C,"dose: 2.5 mg/kg/injection, schedule: Q01DX009 (ip), vehicle: water",137 % of control
same,T/C,"dose: 2.5 mg/kg/injection, schedule: Q03HX008 (ip), vehicle: saline",144 % of control
same,T/C,"dose: 4.0 mg/kg/injection, schedule: Q01DX005 (ip), vehicle: saline",127 % of control
same,T/C,"dose: 4.0 mg/kg/injection, schedule: Q01DX009 (ip), vehicle: saline",132 % of control
same,T/C,"dose: 5.0 mg/kg/injection, schedule: Q01DX001 (ip), vehicle: steroid suspending solution",129 % of control
same,T/C,"dose: 5.0 mg/kg/injection, schedule: Q01DX005 (ip), vehicle: saline",147 % of control
same,T/C,"dose: 5.0 mg/kg/injection, schedule: Q01DX009 (ip), vehicle: water",140 % of control
same,T/C,"dose: 5.0 mg/kg/injection, schedule: Q03HX008 (ip), vehicle: saline",146 % of control
same,T/C,"dose: 8.0 mg/kg/injection, schedule: Q01DX005 (ip), vehicle: saline",132 % of control
same,T/C,"dose: 10.0 mg/kg/injection, schedule: Q01DX001 (ip), vehicle: steroid suspending solution",134 % of control
same,T/C,"dose: 10.0 mg/kg/injection, schedule: Q01DX009 (ip), vehicle: water",127 % of control
same,T/C,"dose: 10.0 mg/kg/injection, schedule: Q03HX008 (ip), vehicle: saline",146 % of control
same,T/C,"dose: 10.0 mg/kg/injection, schedule: Q03HX024 (ip), vehicle: saline",133 % of control
same,T/C,"dose: 10.0 mg/kg/injection, schedule: Q04DX003 (ip), vehicle: saline",137 % of control
same,T/C,"dose: 10.0 mg/kg/injection, schedule: Q04DX003 (ip), vehicle: water",140 % of control
same,T/C,"dose: 12.0 mg/kg/injection, schedule: Q01DX009 (oral), vehicle: saline",126 % of control
same,T/C,"dose: 20.0 mg/kg/injection, schedule: Q01DX001 (ip), vehicle: saline",129 % of control
same,T/C,"dose: 20.0 mg/kg/injection, schedule: Q01DX001 (ip), vehicle: steroid suspending solution",139 % of control
same,survivor count,"dose: 20.0 mg/kg/injection, schedule: Q01DX005 (ip), vehicle: saline with Tween-80",7 of 7
same,T/C,"dose: 20.0 mg/kg/injection, schedule: Q01DX005 (ip), vehicle: saline",144 % of control
same,T/C,"dose: 20.0 mg/kg/injection, schedule: Q03HX008 (ip), vehicle: saline",143 % of control
same,T/C,"dose: 20.0 mg/kg/injection, schedule: Q03HX016 (ip), vehicle: saline",141 % of control
same,T/C,"dose: 20.0 mg/kg/injection, schedule: Q04DX003 (ip), vehicle: water",144 % of control
same,T/C,"dose: 20.0 mg/kg/injection, schedule: Q08DX002 (ip), vehicle: saline",132 % of control
same,T/C,"dose: 24.0 mg/kg/injection, schedule: Q01DX009 (oral), vehicle: saline",142 % of control
same,T/C,"dose: 36.0 mg/kg/injection, schedule: Q01DX009 (ip), vehicle: water",130 % of control
same,T/C,"dose: 40.0 mg/kg/injection, schedule: Q01DX001 (ip), vehicle: saline",132 and 147 % of control
same,T/C,"dose: 40.0 mg/kg/injection, schedule: Q01DX001 (sc), vehicle: saline",128 % of control
same,survivor count,"dose: 40.0 mg/kg/injection, schedule: Q01DX005 (ip), vehicle: saline with Tween-80",7 of 7
same,T/C,"dose: 40.0 mg/kg/injection, schedule: Q01DX005 (oral), vehicle: saline",142 % of control
same,T/C,"dose: 40.0 mg/kg/injection, schedule: Q04DX003 (ip), vehicle: water",140 % of control
same,T/C,"dose: 40.0 mg/kg/injection, schedule: Q08DX002 (ip), vehicle: saline",129 % of control
same,T/C,"dose: 48.0 mg/kg/injection, schedule: Q01DX009 (oral), vehicle: saline",137 % of control
same,T/C,"dose: 50.0 mg/kg/injection, schedule: Q01DX009 (ip), vehicle: water",141 % of control
same,T/C,"dose: 60.0 mg/kg/injection, schedule: Q01DX001 (oral), vehicle: saline",144 % of control
same,T/C,"dose: 64.0 mg/kg/injection, schedule: Q01DX005 (ip), vehicle: saline",147 % of control
same,T/C,"dose: 64.0 mg/kg/injection, schedule: Q01DX009 (sc), vehicle: saline",145 % of control
same,T/C,"dose: 76.0 mg/kg/injection, schedule: Q01DX009 (ip), vehicle: water",140 % of control
same,T/C,"dose: 80.0 mg/kg/injection, schedule: Q01DX001 (ip), vehicle: saline",141 % of control
same,T/C,"dose: 80.0 mg/kg/injection, schedule: Q01DX001 (oral), vehicle: saline",144 % of control
same,T/C,"dose: 80.0 mg/kg/injection, schedule: Q01DX001 (sc), vehicle: saline",145 % of control
same,T/C,"dose: 80.0 mg/kg/injection, schedule: Q08DX002 (ip), vehicle: saline",134 % of control
same,T/C,"dose: 116.0 mg/kg/injection, schedule: Q01DX009 (ip), vehicle: water",126 % of control
same,T/C,"dose: 116.0 mg/kg/injection, schedule: Q04DX003 (ip), vehicle: water",140 % of control
same,T/C,"dose: 120.0 mg/kg/injection, schedule: Q01DX001 (oral), vehicle: saline",148 % of control
same,T/C,"dose: 128.0 mg/kg/injection, schedule: Q01DX005 (ip), vehicle: saline",126 % of control
same,T/C,"dose: 128.0 mg/kg/injection, schedule: Q01DX009 (ip), vehicle: saline",126 % of control
same,T/C,"dose: 150.0 mg/kg/injection, schedule: Q04DX003 (ip), vehicle: clinical formulation",127 % of control
same,T/C,"dose: 160.0 mg/kg/injection, schedule: Q01DX001 (ip), vehicle: saline",146 and 147 % of control
same,T/C,"dose: 160.0 mg/kg/injection, schedule: Q01DX001 (oral), vehicle: saline",144 % of control
same,T/C,"dose: 160.0 mg/kg/injection, schedule: Q01DX001 (sc), vehicle: saline",138 % of control
same,T/C,"dose: 160.0 mg/kg/injection, schedule: Q04DX003 (ip), vehicle: suspension in saline",136 % of control
same,T/C,"dose: 160.0 mg/kg/injection, schedule: Q04DX003 (iv), vehicle: suspension in saline",137 % of control
same,T/C,"dose: 176.0 mg/kg/injection, schedule: Q01DX009 (ip), vehicle: water",137 and 147 % of control
same,T/C,"dose: 176.0 mg/kg/injection, schedule: Q04DX003 (ip), vehicle: water",140 % of control
same,T/C,"dose: 266.0 mg/kg/injection, schedule: Q04DX003 (ip), vehicle: water",145 % of control
same,T/C,"dose: 300.0 mg/kg/injection, schedule: Q04DX003 (ip), vehicle: clinical formulation",136 % of control
same,T/C,"dose: 320.0 mg/kg/injection, schedule: Q01DX001 (ip), vehicle: saline",137 and 142 % of control
same,T/C,"dose: 320.0 mg/kg/injection, schedule: Q01DX001 (sc), vehicle: saline",145 % of control
same,survivor count,"dose: 320.0 mg/kg/injection, schedule: Q04DX003 (iv), vehicle: suspension in saline",5 of 6
same,survivor count,"dose: 400.0 mg/kg/injection, schedule: Q01DX005 (ip), vehicle: water",6 of 6
same,T/C,"dose: 400.0 mg/kg/injection, schedule: Q01DX009 (ip), vehicle: water",140 % of control
same,T/C,"dose: 400.0 mg/kg/injection, schedule: Q04DX003 (ip), vehicle: water",133 and 143 % of control
same,T/C,"dose: 480.0 mg/kg/injection, schedule: Q01DX001 (oral), vehicle: saline",135 % of control [9 of 10 alive]
same,T/C,"dose: 600.0 mg/kg/injection, schedule: Q04DX003 (ip), vehicle: water",147 % of control
same,T/C,"dose: 640.0 mg/kg/injection, schedule: Q01DX001 (oral), vehicle: saline",138 % of control
same,T/C,"dose: 960.0 mg/kg/injection, schedule: Q01DX001 (oral), vehicle: saline",147 % of control
